The results in this text go back to doi:10.1101/2024.05.10.593632.

Results are given in words; binding and its absence hold for the method and conditions named. A result given as binding can be weak or reduced; the word gives no strength. For some assays here: In cells and extracts the contact can be indirect.

In test [1] the target is SlSAUR38 fused to the GAL4 DNA-binding domain (tomato (Solanum lycopersicum)). Description: two-hybrid.
In test [2] the target is SlLHA4-N-YFPC (tomato (Solanum lycopersicum)). Description: split reporter.
In test [3] the target is SlSAUR36 fused to the GAL4 DNA-binding domain (tomato (Solanum lycopersicum)). Description: two-hybrid.

For the substance “SlPP2C.D2 fused to the GAL4 activation domain (from UniProt A0A3Q7FTY4) (enzyme)”, the binding result in test [1] is recorded as “binds”.
Regarding “SlPP2C.D3-N-YFPN (from UniProt A0A3Q7FIB7) (enzyme)”, the binding entry in test [2] is recorded as “binds”.
Regarding “SlPP2C.D5-N-YFPN (from UniProt A0A3Q7GZ61) (enzyme)”, in test [2], the binding result was “binds”.
Consider “SlPP2C.D2-N-YFPN (from UniProt A0A3Q7FTY4) (enzyme)”, for which the binding result in test [2] is reported as “binds”.
Regarding “SlPP2C.D4-N-YFPN (from UniProt A0A3Q7GLG9) (enzyme)”, the binding result in test [2] is given as “binds”.
As for “SlPP2C.D3 fused to the GAL4 activation domain (from UniProt A0A3Q7FIB7) (enzyme)”, the binding entry in test [1] was “binds”.
Turning to “SlPP2C.D4 fused to the GAL4 activation domain (from UniProt A0A3Q7GLG9) (enzyme)”, the binding entry in test [3] is given as “binds”.
Take “SlPP2C.D5 fused to the GAL4 activation domain (from UniProt A0A3Q7GZ61) (enzyme)”: the binding entry in test [3] is listed as “binds”.
